# Laboratory results as given in patent US12421207B2 (CMG Pharmaceutical Co., Ltd., priority 2022, dated 2025).
# The chains behind the UniProt entries cited, without tags or fusion partners. Residues count along the entry.
# UniProt P30530, 26-894 limits assumed: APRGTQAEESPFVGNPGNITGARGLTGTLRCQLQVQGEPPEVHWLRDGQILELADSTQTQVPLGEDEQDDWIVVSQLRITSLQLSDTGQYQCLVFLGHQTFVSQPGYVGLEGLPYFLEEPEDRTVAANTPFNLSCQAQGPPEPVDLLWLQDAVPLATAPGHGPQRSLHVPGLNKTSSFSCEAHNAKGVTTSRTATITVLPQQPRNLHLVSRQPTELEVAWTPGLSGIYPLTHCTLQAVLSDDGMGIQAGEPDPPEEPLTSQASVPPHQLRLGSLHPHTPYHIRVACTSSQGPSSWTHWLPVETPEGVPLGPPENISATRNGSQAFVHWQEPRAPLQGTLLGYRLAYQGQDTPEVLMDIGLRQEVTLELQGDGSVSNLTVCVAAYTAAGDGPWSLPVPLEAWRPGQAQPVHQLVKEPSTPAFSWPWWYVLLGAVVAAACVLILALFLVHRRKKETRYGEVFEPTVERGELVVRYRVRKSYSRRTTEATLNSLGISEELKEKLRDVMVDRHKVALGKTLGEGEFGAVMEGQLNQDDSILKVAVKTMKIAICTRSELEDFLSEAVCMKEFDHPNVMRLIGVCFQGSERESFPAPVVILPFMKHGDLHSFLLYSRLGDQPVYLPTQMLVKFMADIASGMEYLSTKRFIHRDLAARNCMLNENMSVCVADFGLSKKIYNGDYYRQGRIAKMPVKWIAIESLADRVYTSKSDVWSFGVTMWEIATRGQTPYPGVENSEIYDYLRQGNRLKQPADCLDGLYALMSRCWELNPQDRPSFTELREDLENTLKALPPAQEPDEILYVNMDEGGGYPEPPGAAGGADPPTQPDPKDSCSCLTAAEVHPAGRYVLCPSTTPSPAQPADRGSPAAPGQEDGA
# UniProt P08581, 25-1390 limits assumed: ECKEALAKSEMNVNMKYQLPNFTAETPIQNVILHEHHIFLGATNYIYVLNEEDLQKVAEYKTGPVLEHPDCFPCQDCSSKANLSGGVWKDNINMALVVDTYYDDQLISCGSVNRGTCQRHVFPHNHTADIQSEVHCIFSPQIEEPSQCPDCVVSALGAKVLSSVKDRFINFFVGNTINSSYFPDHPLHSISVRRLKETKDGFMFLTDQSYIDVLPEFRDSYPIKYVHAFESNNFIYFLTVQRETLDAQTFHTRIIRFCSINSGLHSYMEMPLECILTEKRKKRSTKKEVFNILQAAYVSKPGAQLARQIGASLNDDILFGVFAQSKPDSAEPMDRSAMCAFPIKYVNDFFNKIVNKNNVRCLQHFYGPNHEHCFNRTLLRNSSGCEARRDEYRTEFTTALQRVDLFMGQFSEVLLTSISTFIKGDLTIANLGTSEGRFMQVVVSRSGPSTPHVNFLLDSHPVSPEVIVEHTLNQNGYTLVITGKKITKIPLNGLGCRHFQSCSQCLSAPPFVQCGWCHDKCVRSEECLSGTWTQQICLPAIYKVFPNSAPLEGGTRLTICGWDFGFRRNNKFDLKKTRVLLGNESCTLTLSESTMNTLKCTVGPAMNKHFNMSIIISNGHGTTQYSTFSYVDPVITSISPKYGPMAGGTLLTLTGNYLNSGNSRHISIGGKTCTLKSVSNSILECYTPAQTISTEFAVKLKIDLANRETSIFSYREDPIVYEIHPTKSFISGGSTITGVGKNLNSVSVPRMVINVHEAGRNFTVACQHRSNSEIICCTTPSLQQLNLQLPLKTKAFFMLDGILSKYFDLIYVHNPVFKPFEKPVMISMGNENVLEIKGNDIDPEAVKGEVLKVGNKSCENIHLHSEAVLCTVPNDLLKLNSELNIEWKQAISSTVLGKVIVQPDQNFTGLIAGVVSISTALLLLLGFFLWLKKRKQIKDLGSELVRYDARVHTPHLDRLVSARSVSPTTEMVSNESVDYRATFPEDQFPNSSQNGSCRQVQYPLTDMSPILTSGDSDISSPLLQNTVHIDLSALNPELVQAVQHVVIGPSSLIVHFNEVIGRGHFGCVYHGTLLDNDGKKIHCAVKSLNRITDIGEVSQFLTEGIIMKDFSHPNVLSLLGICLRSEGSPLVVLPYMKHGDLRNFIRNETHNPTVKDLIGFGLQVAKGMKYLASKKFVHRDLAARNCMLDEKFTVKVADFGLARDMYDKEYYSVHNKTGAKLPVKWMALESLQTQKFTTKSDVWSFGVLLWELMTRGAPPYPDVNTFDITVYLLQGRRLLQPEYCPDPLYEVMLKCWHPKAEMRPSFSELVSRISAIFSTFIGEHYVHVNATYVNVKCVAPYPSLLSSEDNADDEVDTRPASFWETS
# UniProt Q12866, 21-999 limits assumed: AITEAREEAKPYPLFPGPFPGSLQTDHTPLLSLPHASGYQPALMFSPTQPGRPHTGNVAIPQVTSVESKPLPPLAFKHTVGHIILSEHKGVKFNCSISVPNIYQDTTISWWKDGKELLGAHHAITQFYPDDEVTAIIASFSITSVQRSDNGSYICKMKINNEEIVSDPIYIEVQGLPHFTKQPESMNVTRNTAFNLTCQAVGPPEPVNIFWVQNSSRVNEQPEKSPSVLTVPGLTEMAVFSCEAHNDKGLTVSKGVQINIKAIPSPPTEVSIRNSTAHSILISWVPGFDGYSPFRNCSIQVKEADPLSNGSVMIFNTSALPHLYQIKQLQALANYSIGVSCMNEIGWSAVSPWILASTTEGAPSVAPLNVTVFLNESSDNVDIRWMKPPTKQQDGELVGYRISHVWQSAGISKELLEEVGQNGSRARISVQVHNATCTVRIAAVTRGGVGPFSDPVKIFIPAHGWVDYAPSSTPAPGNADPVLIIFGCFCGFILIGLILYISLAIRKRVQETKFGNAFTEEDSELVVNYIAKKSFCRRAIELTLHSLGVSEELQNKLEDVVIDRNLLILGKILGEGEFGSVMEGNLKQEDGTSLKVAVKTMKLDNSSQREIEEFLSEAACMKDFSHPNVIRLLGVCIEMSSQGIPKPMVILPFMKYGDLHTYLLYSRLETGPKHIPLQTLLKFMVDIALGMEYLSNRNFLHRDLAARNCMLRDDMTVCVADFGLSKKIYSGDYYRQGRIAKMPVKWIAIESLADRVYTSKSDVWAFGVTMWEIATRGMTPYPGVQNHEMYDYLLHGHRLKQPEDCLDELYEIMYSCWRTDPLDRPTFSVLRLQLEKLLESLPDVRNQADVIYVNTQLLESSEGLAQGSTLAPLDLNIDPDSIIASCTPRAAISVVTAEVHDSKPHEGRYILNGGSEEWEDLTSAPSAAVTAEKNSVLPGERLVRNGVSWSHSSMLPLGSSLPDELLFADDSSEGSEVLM
# Legend:
# [1] = target: AXL (Homo sapiens, UniProt P30530); test: Enzymatic kinase assay (ADP-Glo), AXL; conditions: read-out: Enzymatic assay IC50 AXL; Table 3; poly (Glu4, Tyr1) substrate, 60 min room temperature, ADP-GLO luminescence
# [2] = system: PC9/ER cells; test: Cell viability assay (CellTiter-Glo 2.0), erlotinib-resistant PC9/ER cells; assay type: cell-based; conditions: read-out: Relative cell viability; IC50 PC9ER; Table 4; 72 h drug treatment, combinations of EGFR TKIs and inhibitor of Formula (I)
# Excerpt: (§1) To explore c-MET and AXL mechanisms of EGFR TKI resistance, resistant cells of the EGFR TKI hypersensitive EGFR exon 19 mutant NSCLC cell line, HCC827 and PC9 were generated by exposing these cells to increasing concentrations of EGFR TKI for over 3 months.
# (§2) The human cell line HCC827 was purchased from the American Type Culture Collection (Manassas, VA), and the PC9 cell line was obtained from RIKEN Cell Bank (Ibaraki, Japan). The HCC827/ER, HCC827/GR, HCC827/OR, and PC9/ER cells, which contain deletions in the EGFR exon 19 and the c-MET and AXL overexpression, were developed from HCC827 or PC9 cells by stepwise exposure to gefitinib, erlotinib, and osimertinib. Gefitinib-resistant cells were referred to as HCC827/GR. Erlotinib-resistant cells were referred to as PC9/ER, HCC827/ER. Osimertinib-resistant cells were referred to as HCC827/OR.
# (§3) Cell viability assays were carried out by plating 1,000 cells per well of HCC827 or PC9 resistant cells, respectively, into white transparent-bottom 384-well plates. The cells were treated with each TKI across a 10-dose range from 1 nM to 10,000 nM. After 72 h of drug treatment, cell viability was measured using the CellTiter-Glo 2.0 assay (Promega, Madison, WI). […]. The combination of EGFR TKIs and inhibitor of Formula (I) overcame acquired resistance to EGFR TKIs.
# (§4) Cell viability assays were carried out by plating 1,000 cells per well of HCC827 or PC9 resistant cells, respectively, into white transparent-bottom 384-well plates. The cells were treated with each TKI across a 10-dose range from 1 nM to 10,000 nM. After 72 h of drug treatment, cell viability was measured using the CellTiter-Glo 2.0 assay (Promega, Madison, WI). […].
# [3] = system: HCC827/ER cells; test: Cell viability assay (CellTiter-Glo 2.0), erlotinib-resistant HCC827/ER cells; assay type: cell-based, human; conditions: read-out: Relative cell viability; IC50 HCC827ER; Table 4; 72 h drug treatment, combinations of EGFR TKIs and inhibitor of Formula (I)
# [4] = target: c-MET (Homo sapiens, UniProt P08581); test: Enzymatic kinase assay (ADP-Glo), c-MET; conditions: read-out: Enzymatic assay IC50 c-MET; Table 3; poly (Glu4, Tyr1) substrate, 60 min room temperature, ADP-GLO luminescence
# [5] = system: HCC827/OR cells; test: Cell viability assay (CellTiter-Glo 2.0), osimertinib-resistant HCC827/OR cells; assay type: cell-based, human; conditions: read-out: Relative cell viability; IC50 HCC827OR; Table 4; 72 h drug treatment, combinations of EGFR TKIs and inhibitor of Formula (I)
# Excerpt: as §1, §2, §3, §4
# [6] = target: MER (Homo sapiens, UniProt Q12866); test: Enzymatic kinase assay (ADP-Glo), MER; conditions: read-out: Enzymatic assay IC50 MER; Table 3; poly (Glu4, Tyr1) substrate, 60 min room temperature, ADP-GLO luminescence
# [7] = system: HCC827/GR cells; test: Cell viability assay (CellTiter-Glo 2.0), gefitinib-resistant HCC827/GR cells; assay type: cell-based, human; conditions: read-out: Relative cell viability; IC50 HCC827GR; Table 4; 72 h drug treatment, combinations of EGFR TKIs and inhibitor of Formula (I)
Compound,IC50 [1] [nM],IC50 [2] [nM],IC50 [3] [nM],IC50 [4] [nM],IC50 [5] [nM],IC50 [6] [nM],IC50 [7] [nM]
CCn1cc(C(=O)Nc2ccc(Oc3ccnc(N)c3C#CC(C)(C)N3CCNCC3)c(F)c2)c(=O)n(C2CCCCC2)c1=O,< 10,< 1000,< 1000,< 100,< 10000,< 10,< 1000
CCn1cc(C(=O)Nc2ccc(Oc3ccnc(N)c3C#CCC3CCN(C)CC3)c(F)c2)c(=O)n(C2CCCCC2)c1=O,< 10,< 1000,< 1000,< 10,< 10000,< 10,< 10000
CCn1cc(C(=O)Nc2ccc(Oc3ccnc(N)c3C#CCN3CCOCC3)c(F)c2)c(=O)n(C2CCCCC2)c1=O,< 10,< 1000,< 1000,< 100,< 100,< 10,< 1000

# The match of structure and compound is tentative.
